Assay results published in PMC10239695.
These are yes or no findings as the source states them, for the method shown. Some entries that bind do so weakly or less than the wild type. For some assays here: Where a sequence is shown, tags or fusion partners need not be part of it.

Sequences of proteins named here, by UniProt entry; tags and fusion partners are left off.
UniProt A0A096ZNX6: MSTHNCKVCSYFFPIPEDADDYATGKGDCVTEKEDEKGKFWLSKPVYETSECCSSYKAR

T1: Benzylsuccinate synthase alpha subunit (BSSα), C-terminally His6 tagged (UniProt O68395)
T1 sequence: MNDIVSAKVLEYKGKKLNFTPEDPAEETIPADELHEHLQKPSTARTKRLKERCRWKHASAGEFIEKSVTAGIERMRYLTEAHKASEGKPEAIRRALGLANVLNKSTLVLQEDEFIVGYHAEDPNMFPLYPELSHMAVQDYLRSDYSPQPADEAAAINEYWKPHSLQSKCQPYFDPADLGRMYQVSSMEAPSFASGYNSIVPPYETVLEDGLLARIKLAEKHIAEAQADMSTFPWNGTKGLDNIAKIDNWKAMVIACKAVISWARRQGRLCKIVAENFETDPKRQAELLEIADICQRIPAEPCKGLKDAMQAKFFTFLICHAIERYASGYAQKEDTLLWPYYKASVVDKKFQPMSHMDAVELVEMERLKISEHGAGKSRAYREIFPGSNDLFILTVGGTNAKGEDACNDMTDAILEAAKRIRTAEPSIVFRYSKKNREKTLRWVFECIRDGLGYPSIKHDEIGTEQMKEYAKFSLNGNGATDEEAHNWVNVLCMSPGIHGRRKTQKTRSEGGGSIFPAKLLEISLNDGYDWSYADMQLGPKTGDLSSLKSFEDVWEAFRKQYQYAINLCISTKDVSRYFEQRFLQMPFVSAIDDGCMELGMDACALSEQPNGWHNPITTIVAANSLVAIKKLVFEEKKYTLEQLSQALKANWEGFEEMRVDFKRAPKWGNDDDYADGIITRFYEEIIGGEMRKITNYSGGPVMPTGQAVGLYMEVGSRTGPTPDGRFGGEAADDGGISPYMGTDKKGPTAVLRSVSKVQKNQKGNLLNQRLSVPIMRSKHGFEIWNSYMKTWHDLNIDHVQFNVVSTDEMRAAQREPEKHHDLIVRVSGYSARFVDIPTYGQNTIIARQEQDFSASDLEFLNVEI


Legend:
[1] = molecular target: 4-isopropylbenzylsuccinate synthase alpha subunit (IBSSα), C-terminally His6 tagged; experiment: co-purification (IMAC on TALON resin); α subunit C-terminally His6 tagged, co-expressed with the γ subunit in E. coli; anaerobic TALON purification from clarified lysate, 50 mM HEPES pH 8.0, 300 mM NaCl; SDS-PAGE of the purified complex
[2] = molecular target: T1, Benzylsuccinate synthase alpha subunit (BSSα), C-terminally His6 tagged; experiment: as above

| Molecule | binding [1] | binding [2] |
| --- | --- | --- |
| 4-isopropylbenzylsuccinate synthase gamma subunit (IBSSγ) (from UniProt A0A096ZNX6 1-59) | binds |  |
| Benzylsuccinate synthase gamma subunit (BSSγ) (protein, UniProt O68394 1-60) MGTTTCKQCANFFPVPKDADDYEAGKADCVREKEDEKGKYWLSKPIFENSAQCEAFQTKR |  | binds |
